## Primary screen of a compound library

Sequences of proteins named here, by UniProt entry; tags and fusion partners are left off.
UniProt E9BF75, entry or part of it: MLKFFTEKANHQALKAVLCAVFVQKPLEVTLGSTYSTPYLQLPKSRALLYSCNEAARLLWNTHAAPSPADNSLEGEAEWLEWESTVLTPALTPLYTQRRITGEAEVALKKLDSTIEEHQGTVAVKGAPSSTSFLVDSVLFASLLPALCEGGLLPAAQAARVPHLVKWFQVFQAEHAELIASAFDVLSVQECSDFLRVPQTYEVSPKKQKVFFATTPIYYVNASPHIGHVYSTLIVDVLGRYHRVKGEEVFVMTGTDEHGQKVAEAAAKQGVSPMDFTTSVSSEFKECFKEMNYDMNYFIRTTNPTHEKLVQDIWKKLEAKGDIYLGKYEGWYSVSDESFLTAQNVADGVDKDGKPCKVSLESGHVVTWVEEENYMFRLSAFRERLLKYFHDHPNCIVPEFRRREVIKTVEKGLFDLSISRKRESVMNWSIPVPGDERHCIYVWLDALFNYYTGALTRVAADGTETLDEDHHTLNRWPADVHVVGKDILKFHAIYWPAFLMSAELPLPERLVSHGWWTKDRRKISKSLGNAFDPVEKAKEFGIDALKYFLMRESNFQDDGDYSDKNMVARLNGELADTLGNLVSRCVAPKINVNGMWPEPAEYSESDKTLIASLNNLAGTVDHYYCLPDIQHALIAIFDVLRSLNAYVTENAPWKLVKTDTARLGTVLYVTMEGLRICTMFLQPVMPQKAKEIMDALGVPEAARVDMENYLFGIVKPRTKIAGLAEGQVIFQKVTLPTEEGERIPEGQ

Data taken from ChEMBL document CHEMBL3988442, “University of Dundee, Small-Polar-MMV Screening Library” (2021).

All values are in %.
The record does not define 0% and 100%; most values in the screen are far below 50% and negative numbers occur (in some assays of this library far below -100).
The compounds are a random part of those screened.
A dash means the value is not listed here; it may have been measured.

A: 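Assay on Mycobacterium tuberculosis, filed only as a heat shock assay from Cornell; the read-out is not stated. The concentration is filed as 10 mM, unlikely as a test dose, so the dose is not known. Higher reads as stronger inhibition (inferred: compounds with an IC50 in retests scored well above the rest). Of about 69,000 compounds tested this way, about 930 (1.4%) reached 50% or more in at least one test.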
B: 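Whole-cell assay for inhibitors of Mycobacterium tuberculosis growth, labelled Cornell in the record; the read-out is not stated. The concentration is filed as 10 mM, unlikely as a test dose, so the dose is not known. Higher means stronger inhibition (inferred from two other growth screens of the library). Of about 53,000 compounds tested this way, about 900 (1.7%) reached 50% or more in at least one test.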
C: 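Primary screen of methionyl-tRNA synthetase; the read-out is not stated. Target: Methionyl-tRNA synthetase (putative), Leishmania donovani (UniProt E9BF75). The test concentration is not given. The values are filed as inhibition. Size under these conditions: about 68,000 compounds, about 24 of them at 50% or above in at least one test.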

compound,A,B,C
Cc1ccccc1-c1noc(CN2CC(n3cccn3)C2)n1,27.06%,-8.108%,7.216%
CC(C)(C)Nc1c(C2CCCN(C(=O)C3CC3)C2)nc2ccccn12.Cl (stereo unspecified),-26.51%,-25.74%,-
Cl.Cn1cc(C(=O)NCc2cncc3c2CCN(S(C)(=O)=O)C3)cn1,36.5%,-26.12%,-
Cn1c2ncccc2c(=O)n1CC(=O)Nc1ccc(F)c(F)c1,-2.673%,-2.592%,14.02%
c1cnnc(N2CCCC2CNCc2csc(-c3ccco3)n2)c1 (stereo unspecified),19.29%,-,25.14%
CCCS(=O)(=O)N1CC(=O)N(Cc2ccccc2OC)CC(O)C1 (stereo unspecified),56.43%,-18.84%,6.301%
CN1C[C@H]2CNC[C@@]2(C(=O)NC2CCN(c3ncccc3C#N)CC2)C1,-,-,2.558%
CN1CCCC1CNC(=O)CCCOc1ccc(I)cc1 (stereo unspecified),-25.32%,-,21.31%
O=C(O)C(F)(F)F.O=C(O)C(F)(F)F.O=C(O)C(F)(F)F.[H][C@@]12CCN(Cc3ccc(C)o3)C[C@]1([H])[C@@H](CN1CCN(C)CC1)OC2,6.414%,-7.764%,-
CCOc1ncccc1CNc1cc(COC)ncn1,-3.388%,15.99%,17.25%
O=C(C1CC=CC1)N1CCC2(CC1)CN(Cc1ccccn1)CCO2,-0.3308%,1.29%,8.155%
CCOC(=O)[C@H]1[C@@H](O)C(=O)N(C)C12CCN(C(=O)C(CC)CC)CC2,3.262%,-0.8056%,12.7%
CC(C)CCCNC(=O)Nc1ccc(Cl)c(C(N)=O)c1,4.489%,-,18.03%
Cc1cc(CN2CCc3nc(C(C)C)nc(O)c3CC2)c(C)s1,-1.052%,3.97%,12.07%
Cn1ccnc1COc1ccc(CN2CCN(CCO)CC2)cc1,-15.13%,-10.08%,7.692%
CCc1nnc(SCC(=O)N2CCc3[nH]nc(C4CCC4)c3C2)o1,-19.85%,6.359%,9.409%
COc1ccc(CCNC(=O)C(C)Nc2cccc(C)c2C)cc1 (stereo unspecified),-1.848%,-,5.108%
COc1ccc(Cl)cc1NCC(=O)NCCc1ccccn1,22.08%,25.4%,8.497%
CNC(=O)c1ccc(CN(C)c2ccc(C(F)(F)F)cn2)cc1,-0.6361%,-,-
Cc1cnc(-c2nc(NC3CC3)ncc2-c2onc(C)c2C)cn1,1.87%,-9.677%,12.9%
Cc1cc(N(Cc2ccccn2)C2CC2)n2nc(C(F)(F)F)nc2n1,9.886%,8.362%,11.96%
CC(=O)N1CCC(NC[C@H]2Cn3c(-c4ccccc4)cnc3CO2)CC1,-29.99%,14.23%,8.475%
Cn1ccnc1CN1CCN(CCOc2ccccc2F)CC1,-13.11%,-3.527%,18.29%
CC(C)N1CCCC(C(=O)N(C)CCCc2cnn(C)c2)C1 (stereo unspecified),0.2729%,6.026%,13.75%
COCCC(Cc1cccc(Br)c1)C(=O)O (stereo unspecified),7.788%,42.44%,15.55%
CCNC(=O)C1CN(Cc2c(-c3cc(C)on3)nn(C)c2Cl)CCO1 (stereo unspecified),-7.491%,-,12.09%
O=C(O)C(F)(F)F.O=C(O)C(F)(F)F.[H][C@@]12CCCO[C@]1([H])[C@H](N(C)Cc1ccco1)CN(Cc1ccsc1)C2,-13.71%,-31.35%,-
Cc1nc(C)n(C2CCCN(C(=O)c3csc(C(C)C)n3)C2)n1 (stereo unspecified),-13.34%,-18.5%,9.15%
Cc1cc(N2CCN(CCO)CC2)nc(-c2ccncc2)n1,-14.4%,-27.55%,18.31%
Cc1ccc(N2CC[C@H]3C[C@H](C(=O)NCc4ccco4)O[C@H]3C2)nn1,-,-,11.78%
O=c1[nH]nc(SCC2CCCCO2)n1C1CC1 (stereo unspecified),-9.786%,-18.69%,3.819%
O=C(c1ncccn1)N1C[C@@H]2COC[C@]2(COCc2cccnc2)C1,-,-,9.929%
Cc1n[nH]c(C2CN(CCc3cccs3)CCO2)n1 (stereo unspecified),-49.96%,-,8.743%
Fc1ccc(CN2CCC3(CC2)CCN(Cc2nccs2)CC3)cc1,-,-,-6.767%
COc1ccc(CNC(C)c2cccc(Br)c2)c(OC)c1OC.Cl (stereo unspecified),-10.84%,10.29%,-
[H][C@@]12C[C@@H](C(=O)NC(C)C)CN(Cc3ccc4ccccc4n3)[C@]1([H])CCO2,-9.162%,-12.14%,-
COc1ccccc1C(=O)N1CC2(COC(C)(C)OC2)C1,-2.083%,-8.434%,-1.439%
[H][C@]12CC[C@]([H])(CN(C(=O)c3cccnc3)C1)N(Cc1ccccc1C#N)C2,12.62%,4.119%,-
O=C(c1cccnc1N1CCOC(c2ccc(Cl)cc2)C1)N1CCCC1 (stereo unspecified),-19.23%,5.968%,2.799%
[H][C@@]12CN(C(C)C)C[C@]1([H])N(Cc1ccccc1OC)C(=O)O2,8.25%,16.05%,-
O=C(NCCCc1ccco1)c1cnc(N2CCOCC2)nc1,2.152%,18%,18.66%
O=C(COc1ccc2c(c1)CCC2)N1CCCC(n2cccn2)C1 (stereo unspecified),5.754%,-23.81%,-0.3436%
COCC(=O)NCc1ccc(-c2ccccc2C(=O)O)cn1,0.2897%,56.05%,17.92%
CC(C)c1cc(NCC2(N3CCOCC3)CCCCC2)ncn1,-23.65%,-27%,-2.749%
[H][C@@]12CCCO[C@]1([H])[C@H](NS(C)(=O)=O)CN(Cc1ccoc1)C2,-3.77%,-14%,-
O=C(O)C(F)(F)F.[H][C@@]12CCN(C(=O)CC(C)C)CC[C@]1(C(=O)N1CCOCC1)CCN2CC,-3.781%,-,-
CN1CCN(c2ncccn2)CC(C(=O)N(C)C)C1 (stereo unspecified),-20.65%,12.33%,10.48%
O=C(O)C(F)(F)F.O=C(O)C(F)(F)F.[H][C@@]12CN(CC3CC3)C[C@]1([H])[C@@H](OC)CCN2S(=O)(=O)c1cccnc1,2.331%,29.78%,-
c1ccc(-c2nnc([C@H]3CCN(C4CCC4)C3)o2)cc1,21.68%,16.22%,9.831%
O=C(Nc1ccccc1F)C1CN(C(=O)c2ccc3c(c2)OCO3)C1,2.394%,32.08%,19.27%
[H][C@@]12CN(Cc3cccc(C)n3)C[C@]1([H])OCCN2C,-7.699%,23.41%,-
COCCN1CCOCC2(CCCN(Cc3ccc(C)o3)C2)C1 (stereo unspecified),-,-,11.3%
COCC(=O)N1CCC(c2cncc(-c3cccc(F)c3)n2)CC1,6.321%,23.12%,22.65%
O=C1COc2cc(C(=O)NS(=O)(=O)c3ccccc3F)ccc2N1,-8.526%,-0.706%,3.937%
O=C(Cc1c[nH]c2ccccc12)N1CCC(Nc2ccccc2)CC1,-11.71%,-,16.26%
O=C(O)C(F)(F)F.O=C(O)C(F)(F)F.O=C(O)C(F)(F)F.c1ccc(CN2CCCC3(CCN(Cc4cccs4)C3)C2)nc1 (stereo unspecified),0.0284%,31.15%,-
Cc1nnc(SCC(=O)NCC(c2ccccc2Cl)N(C)C)s1 (stereo unspecified),25.76%,0.972%,6.597%
CC(C)N(Cc1nccn1C)C(=O)c1cc(Cl)c[nH]c1=O,24.32%,-15.77%,3.169%
CN(C)C(=O)N1CCc2ccc(=O)[nH]c2CC1,-33.15%,19.08%,5.236%
CC(=O)N1CCC2(CCN(C(=O)c3ccc(C)c(C(F)(F)F)c3)CC2)C1,-21.95%,-17.29%,3.004%
COCc1noc(CCNC(=O)c2cc(C)c(C)[nH]c2=O)n1,6.816%,-1.089%,10.06%
Cc1cc(C)n(CC2CN(CCOc3ccccc3F)CCO2)n1 (stereo unspecified),-23.93%,12.99%,12.43%
O=C(C(CNCc1ccsc1)c1ccccc1)N1CCOCC1 (stereo unspecified),-9.569%,25.1%,7.874%
Cn1ccc2c(-c3nccc(N)n3)ccnc21,9.786%,13.57%,15.85%

Some entries from above, unchanged:

- CNC(=O)c1ccc(CN(C)c2ccc(C(F)(F)F)cn2)cc1 : A: -0.6361%
- [H][C@@]12CN(C(C)C)C[C@]1([H])N(Cc1ccccc1OC)C(=O)O2 : A: 8.25%; B: 16.05%
- Cc1nc(C)n(C2CCCN(C(=O)c3csc(C(C)C)n3)C2)n1 (stereo unspecified) : A: -13.34%; B: -18.5%; C: 9.15%
- COc1ccc(CNC(C)c2cccc(Br)c2)c(OC)c1OC.Cl (stereo unspecified) : A: -10.84%; B: 10.29%
- CN1C[C@H]2CNC[C@@]2(C(=O)NC2CCN(c3ncccc3C#N)CC2)C1 : C: 2.558%
- Cc1nnc(SCC(=O)NCC(c2ccccc2Cl)N(C)C)s1 (stereo unspecified) : A: 25.76%; B: 0.972%; C: 6.597%